Measured values from patent publication US10865191B2, “Heterocyclic compounds useful as modulators of TNF alpha” (BRISTOL-MYERS SQUIBB COMPANY, priority 2015, dated 2020).
pIC50: −log10 of the molar value. Read-outs that look alike come from different tables or passages of the source. Some entries share one result that the patent states for a list of compounds.

Sequences of proteins named here, by UniProt entry; tags and fusion partners are left off. Residues count along the entry.
UniProt P01375, 77-233 limits assumed: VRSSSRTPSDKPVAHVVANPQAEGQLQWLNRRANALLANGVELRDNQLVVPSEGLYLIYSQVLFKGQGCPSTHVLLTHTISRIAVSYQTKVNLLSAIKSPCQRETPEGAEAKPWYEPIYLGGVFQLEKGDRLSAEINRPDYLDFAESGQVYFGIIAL

Target: TNFα (Homo sapiens, UniProt P01375)
Experiment: TNF induced HEK-Blue assay (NF-kB-driven secreted alkaline phosphatase reporter)
Type: cell-based
Summary of the method: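 HEK-Blue-CD40L cells (NF-kB-driven SEAP reporter), 20,000/well, added after 30 min pre-incubation of compound (0.004–25 μM final) with TNFα 0.5 ng/mL final at 37 °C; 18 h incubation. SEAP read with QUANTI-Blue at 620 nm; IC50 from 4-parameter logistic fit, normalized to unstimulated and stimulated DMSO controls.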

[1] = read-out: IC50 values measured in the TNF induced HEK-Blue assay; TNFα 0.5 ng/mL, HEK-Blue-CD40L cells, 18 h
[2] = TNFα 0.5 ng/mL, HEK-Blue-CD40L cells, 18 h; read-out: IC50 values measured in the TNF induced HEK-Blue assay

With `C[C@@H](Nc1c(Cl)cnc2ccc(-c3ccc(S(C)(=O)=O)nc3)cc12)c1ccccc1F` [Example 221, (R)-3-chloro-N-(1-(2-fluorophenyl)ethyl)-6-(6-(methylsulfonyl)pyridin-3-yl)quinolin-4-amine] the pIC50 [1] was at least 4.60.

`Cc1ccc(F)c([C@H](Nc2c(Cl)c(C)nc3ccc(-c4cnc(C(C)(C)O)nc4)cc23)C(F)F)c1` [Example 351, (S)-2-(5-(3-chloro-4-((2,2-difluoro-1-(2-fluoro-5-methylphenyl)ethyl)amino)-2-methylquinolin-6-yl)pyrimidin-2-yl)propan-2-ol] showed a pIC50 [2] of at least 4.60.

In the case of `Cc1nc2cc(F)c(-c3cnc(C(C)(C)O)nc3)nc2c(N[C@H](C)c2cccc(C#N)c2)c1Cl` [Example 589, (R)-3-(1-((3-chloro-7-fluoro-6-(2-(2-hydroxypropan-2-yl)pyrimidin-5-yl)-2-methyl-1,5-naphthyridin-4-yl)amino)ethyl)benzonitrile], the pIC50 [2] was at least 4.60.

`CC(Nc1c(Cl)cnc2ccc(-c3ccc(C(C)(C)O)cc3)cc12)c1cocn1` (racemic) [Example 206, 2-(4-(3-chloro-4-((1-(oxazol-4-yl)ethyl)amino)quinolin-6-yl)phenyl)propan-2-ol] showed a pIC50 [2] of at least 4.60.

Compound `C[C@@H](Nc1c(Cl)cnc2ccc(-c3cnc(C(C)(C)O)nc3)cc12)c1cccc(N2CCCC2=O)c1` [Example 363, (R)-1-(3-(1-((3-chloro-6-(2-(2-hydroxypropan-2-yl)pyrimidin-5-yl)quinolin-4-yl)amino)ethyl)phenyl)pyrrolidin-2-one] has a pIC50 [2] of at least 4.60.

`Cc1ccc(C)c(Nc2c(Cl)c(CO)nc3ccc(-c4ccc(C#N)nc4)cc23)c1` [Example 40, 5-(3-chloro-4-((2,5-dimethylphenyl)amino)-2-(hydroxymethyl)quinolin-6-yl)picolinonitrile] gave a pIC50 [2] of at least 4.60.

`Cc1nc2c(F)cc(-c3cnc(C(C)(C)O)nc3)cc2c(N[C@H](C)c2cc(C#N)ccc2F)c1Cl` [Example 302, (R)-3-(1-((3-chloro-8-fluoro-6-(2-(2-hydroxypropan-2-yl)pyrimidin-5-yl)-2-methylquinolin-4-yl)amino)ethyl)-4-fluorobenzonitrile] gave a pIC50 [2] of at least 4.60.

Work on `C[C@@H](Nc1c(Cl)cnc2ccc(-c3cnc(C(C)(C)O)nc3)cc12)c1cc(CC(O)CO)ccc1F` (mixture of isomers) [Example 399, 3-(3-((R)-1-((3-chloro-6-(2-(2-hydroxypropan-2-yl)pyrimidin-5-yl)quinolin-4-yl)amino)ethyl)-4-fluorophenyl)propane-1,2-diol] yielded a pIC50 [2] of at least 4.60.

`C=Cc1ccc(F)c([C@@H](C)Nc2c(Cl)c(C)nc3cc(F)c(-c4cnc(C(C)(C)O)nc4)nc23)c1` [Example 572, (R)-2-(5-(7-chloro-3-fluoro-8-((1-(2-fluoro-5-vinylphenyl)ethyl)amino)-6-methyl-1,5-naphthyridin-2-yl)pyrimidin-2-yl)propan-2-ol] gave a pIC50 [2] of at least 4.60.

With `CC(C)(O)c1ncc(-c2cc(F)c3ncc(Cl)c(N[C@@H](c4ccccc4F)C(F)F)c3c2)cn1` [Example 297, (S)-2-(5-(3-chloro-4-((2,2-difluoro-1-(2-fluorophenyl)ethyl)amino)-8-fluoroquinolin-6-yl)pyrimidin-2-yl)propan-2-ol] the pIC50 [2] was at least 4.60.

`CC(C)(O)c1ccc(-c2cc3c(N[C@@H](c4ccccc4F)C(F)F)c(Cl)cnc3cc2F)cn1` [Example 270, (S)-2-(5-(3-chloro-4-((2,2-difluoro-1-(2-fluorophenyl)ethyl)amino)-7-fluoroquinolin-6-yl)pyridin-2-yl)propan-2-ol] was tested, and the pIC50 [2] was at least 4.60.

With `Cc1ccc(C)c(Nc2c(C)c(C)nc3ccc(-c4cnc(C(C)(C)O)nc4)cc23)c1` [Example 184, 2-(5-(4-((2,5-dimethylphenyl)amino)-2,3-dimethylquinolin-6-yl)pyrimidin-2-yl)propan-2-ol] the pIC50 [2] was at least 4.60.

`CC(Nc1c(Cl)cnc2cc(F)c(-c3cnc(N4CCC(C(=O)O)CC4)nc3)cc12)c1ccccc1F` (single isomer, unassigned) [Example 244, 1-(5-(3-chloro-7-fluoro-4-((1-(2-fluorophenyl)ethyl)amino)quinolin-6-yl)pyrimidin-2-yl)piperidine-4-carboxylic acid] was tested, and the pIC50 [2] was at least 4.60.

Compound `CC(Cc1cn(C)c(=O)c2ccccc12)Nc1c(Cl)cnc2ccc(-c3cnc(C(C)(C)O)nc3)cc12` (racemic) [Example 138, 4-(2-((3-chloro-6-(2-(2-hydroxypropan-2-yl)pyrimidin-5-yl)quinolin-4-yl)amino)propyl)-2-methylisoquinolin-1(2H)-one] has a pIC50 [2] of at least 4.60.

For `Cc1nc2cc(F)c(-c3cnc(C(C)(C)O)nc3)cc2c(N[C@H](C)c2cc(OCCCO)ccc2F)c1Cl` [Example 443, (R)-3-(3-(1-((3-chloro-7-fluoro-6-(2-(2-hydroxypropan-2-yl)pyrimidin-5-yl)-2-methylquinolin-4-yl)amino)ethyl)-4-fluorophenoxy)propan-1-ol], the pIC50 [2] was at least 4.60.

In the case of `C[C@@H](Nc1c(Cl)cnc2ccccc12)c1cc(-c2cccnc2N)ccc1F` [Example 512, (R)—N-(1-(5-(2-aminopyridin-3-yl)-2-fluorophenyl)ethyl)-3-chloroquinolin-4-amine], the pIC50 [2] was at least 4.60.

In the case of `Cc1ccc(C)c(Nc2c(Cl)c(C(=O)Nc3ccncc3)nc3ccc(-c4ccc(C#N)nc4)cc23)c1` [Example 36, 3-chloro-6-(6-cyanopyridin-3-yl)-4-((2,5-dimethylphenyl)amino)-N-(pyridin-4-yl)quinoline-2-carboxamide], the pIC50 [2] was at least 4.60.

For `Cc1nc2ccc(-c3cnc(C(C)(C)O)nc3)cc2c(N[C@H](C)c2cccc(OCCO)c2)c1Cl` [Example 437, (R)-2-(5-(3-chloro-4-((1-(3-(2-hydroxyethoxy)phenyl)ethyl)amino)-2-methylquinolin-6-yl)pyrimidin-2-yl)propan-2-ol], the pIC50 [2] was at least 4.60.

`CC(C)(O)c1ncc(-c2cc3c(NC4(c5ccccc5F)CC4)c(Cl)cnc3cc2F)cn1` [Example 278, 2-(5-(3-chloro-7-fluoro-4-((1-(2-fluorophenyl)cyclopropyl)amino)quinolin-6-yl)pyrimidin-2-yl)propan-2-ol] gave a pIC50 [2] of at least 4.60.

`C[C@@H](Nc1c(Cl)cnc2cc(F)c(-c3cnc(C(C)(C)O)nc3)nc12)c1cccc(CO)c1` [Example 576, (R)-2-(5-(7-chloro-3-fluoro-8-((1-(3-(hydroxymethyl)phenyl)ethyl)amino)-1,5-naphthyridin-2-yl)pyrimidin-2-yl)propan-2-ol] gave a pIC50 [2] of at least 4.60.

Work on `CC(Cc1ccco1)Nc1c(Cl)cnc2ccc(-c3cnc(C(C)(C)O)nc3)cc12` (racemic) [Example 133, 2-(5-(3-chloro-4-((1-(furan-2-yl)propan-2-yl)amino)quinolin-6-yl)pyrimidin-2-yl)propan-2-ol] yielded a pIC50 [2] of at least 4.60.

Work on `C[C@@H](Nc1c(Cl)cnc2ccc(-c3cnc(C(C)(C)O)nc3)cc12)c1cc(N2CCCC2=O)ccc1F` [Example 362, (R)-1-(3-(1-((3-chloro-6-(2-(2-hydroxypropan-2-yl)pyrimidin-5-yl)quinolin-4-yl)amino)ethyl)-4-fluorophenyl)pyrrolidin-2-one] yielded a pIC50 [2] of at least 4.60.

For `CC(Nc1c(Cl)cnc2c(Cl)cc(Br)cc12)c1ccccc1F` (racemic) [Example 122, 6-bromo-3,8-dichloro-N-(1-(2-fluorophenyl)ethyl)quinolin-4-amine], the pIC50 [2] was at least 4.60.

`CC(Nc1c(Cl)cnc2cc(F)c(-c3cnc(C(C)(O)CO)nc3)cc12)c1ccccc1F` (stereo not shown) [Example 257, 2-(5-(3-chloro-7-fluoro-4-((1-(2-fluorophenyl)ethyl)amino)quinolin-6-yl)pyrimidin-2-yl)propane-1,2-diol] gave a pIC50 [2] of at least 4.60.

In the case of `CC(Nc1c(Cl)cnc2ccc(-c3cnc(C(C)(C)O)nc3)cc12)c1ccc(C(F)(F)F)cc1` (racemic) [Example 150, 2-(5-(3-chloro-4-((1-(4-(trifluoromethyl)phenyl)ethyl)amino)quinolin-6-yl)pyrimidin-2-yl)propan-2-ol], the pIC50 [2] was at least 4.60.

`Cc1nc2cc(F)c(-c3cnc(C(C)(C)O)nc3)nc2c(N[C@@H](c2cc(CO)ccc2F)C(F)F)c1Cl` [Example 496, (S)-2-(5-(7-chloro-8-((2,2-difluoro-1-(2-fluoro-5-(hydroxymethyl)phenyl)ethyl)amino)-3-fluoro-6-methyl-1,5-naphthyridin-2-yl)pyrimidin-2-yl)propan-2-ol] gave a pIC50 [2] of at least 4.60.

Compound `C[C@@H](Nc1c(Cl)cnc2ccc(-c3cnc(N4CCN([C@@H](CNC(=O)OC(C)(C)C)C(=O)O)CC4)nc3)cc12)c1ccccc1F` [Example 93, (S)-3-((tert-butoxycarbonyl)amino)-2-(4-(5-(3-chloro-4-(((R)-1-(2-fluorophenyl)ethyl)amino)quinolin-6-yl)pyrimidin-2-yl)piperazin-1-yl)propanoic acid] has a pIC50 [2] of at least 4.60.

With `Cc1nc2cc(F)c(-c3cnc(C(C)(C)O)nc3)nc2c(N[C@@H](c2cc(C#N)ccc2F)C(F)F)c1Cl` [Example 499, (S)-3-(1-((3-chloro-7-fluoro-6-(2-(2-hydroxypropan-2-yl)pyrimidin-5-yl)-2-methyl-1,5-naphthyridin-4-yl)amino)-2,2-difluoroethyl)-4-fluorobenzonitrile] the pIC50 [2] was at least 4.60.

`C[C@@H](Nc1c(Cl)cnc2ccccc12)c1cc(-c2cn(C)nc2C(F)(F)F)ccc1F` [Example 472, (R)-3-chloro-N-(1-(2-fluoro-5-(1-methyl-3-(trifluoromethyl)-1H-pyrazol-4-yl)phenyl)ethyl)quinolin-4-amine] gave a pIC50 [2] of at least 4.60.

In the case of `CC(C)(O)c1ncc(-c2ccc3ncc(Cl)c(NC(CC(F)(F)F)c4ccccc4)c3c2)cn1` (racemic) [Example 165, 2-(5-(3-chloro-4-((3,3,3-trifluoro-1-phenylpropyl)amino)quinolin-6-yl)pyrimidin-2-yl)propan-2-ol], the pIC50 [2] was at least 4.60.

With `CC(Nc1c(Cl)cnc2cc(F)c(-c3cnc(C(C)(C)O)nc3)cc12)c1ccccc1F` (stereo not shown) [Example 250, 2-(5-(3-chloro-7-fluoro-4-((1-(2-fluorophenyl)ethyl)amino)quinolin-6-yl)pyrimidin-2-yl)propan-2-ol] the pIC50 [1] was at least 4.60.
